Results as given in the supplement of paper PMC10338343.
± gives the standard deviation. The entries are a selection whose mix differs from that of the whole data set. The uncertainty is large for many entries. The list shows a part of the results.

How the values were obtained:
[1] = system: MILI (PIWIL2) piRISC loaded with L1MC piRNA (26 nt); assay: pre-steady-state target cleavage rate (min^-1); higher = faster piRNA-guided slicing of the target; details: guide: L1MC piRNA 5'p-UAACUAAAUACUAUGCAAGCUGUAGG
In short: (§1)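 Active affinity-purified piRISC (1 nM) loaded with one synthetic guide was mixed with a transcribed, DNA-blocked target RNA library (0.1 nM), with or without 500 nM GTSF1 partner protein, in HEPES–potassium acetate buffer at 33 °C for 0–8 or 0–960 min. Uncleaved targets were sequenced, normalised to depth and to weakly complementary targets, and pooled across three trials, with k3 capped at 0.0001 min^-1. The pre-steady-state cleavage rate was determined with a burst-and-steady-state fit.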

[2] = system: MIWI (PIWIL1) piRISC loaded with L1MC piRNA (30 nt); assay: as above; details: guide: L1MC piRNA 5'p-UAACUAAAUACUAUGCAAGCUGUAGGUCCU
In short: as §1

[3] = system: EfPiwi piRISC loaded with L1MC piRNA (26 nt); assay: pre-steady-state target cleavage rate (min^-1); guide: L1MC piRNA 5'p-UAACUAAAUACUAUGCAAGCUGUAGG; MIWI and MILI are mouse PIWI proteins and EfPiwi is from a freshwater sponge; tags in brackets are library labels; higher = faster piRNA-guided slicing of the target
In short: as §1

[4] = auxiliary factor: 500 nM mouse GTSF1
[5] = auxiliary factor: none (no GTSF1)
[6] = auxiliary factor: 500 nM Ephydatia muelleri Gtsf1

Row | Sequence | pre-steady-state target cleavage rate [1, 4] | pre-steady-state target cleavage rate [1, 5] | pre-steady-state target cleavage rate [2, 4] | pre-steady-state target cleavage rate [2, 5] | pre-steady-state target cleavage rate [3, 6] | pre-steady-state target cleavage rate ([3]; auxiliary factor: none (no Gtsf1))
1 | UCCUGGAUGAGCUUGCAUAGUUUUAGUUA | 0.00248 ± 0.0048 | 0.0011 ± 0.0055 | 0.00219 ± 0.0064 | 0.00146 ± 0.0049 | 0.000844 ± 0.0047 | –
2 | UCCUGGAUGAGCUUCGUUAGUAUUUAGUUA | 0.00309 ± 0.0037 | 0.000836 ± 0.0069 | 0.000565 ± 0.011 | 0.000498 ± 0.01 | 0.000236 ± 0.012 | –
3 | UCCUGGAUGUCGAACCAUAGUAUUUAGUAUA | 0.000795 ± 0.0073 | 0.00014 ± 0.015 | 0.000465 ± 0.01 | 0.00066 ± 0.0096 | 0.000771 ± 0.0088 | –
4 | UCCUGGAUCAGCUUGGUAAGUAUUUAGUAA | 0.0371 ± 0.011 | 0.00114 ± 0.0053 | 0.00119 ± 0.0074 | 0.000643 ± 0.011 | 0.00112 ± 0.0064 | –
5 | UCCUGCAACAGCUUGCAUAGUAUUUAGUUA | 0.398 ± 0.028 | 0.0107 ± 0.0034 | 1.57 ± 0.12 | 0.0696 ± 0.017 | 0.0741 ± 0.018 | –
6 | UCCUGGAUGUGGUUGCAUAGAAUUUAGUUA | 0.0151 ± 0.0063 | 0.00318 ± 0.0028 | 0.00363 ± 0.0068 | 0.00186 ± 0.0046 | 0.000743 ± 0.007 | –
7 | UCCUCACUACAGCUUGCAUAGUAUUUAGUUA | 0.259 ± 0.022 | 0.00971 ± 0.0027 | 0.676 ± 0.03 | 0.0551 ± 0.0082 | 0.0191 ± 0.0067 | –
8 | UCCUGGAUGUGCUUGCAAUCUAUUUAGUUA | 0.00256 ± 0.0038 | 0.00135 ± 0.0039 | 0.00144 ± 0.0056 | 0.000282 ± 0.0094 | 0.000648 ± 0.01 | –
9 | UCCUGGAACAGCUUGCAUAGUAAAAAGUUA | 0.0663 ± 0.018 | 0.00235 ± 0.0028 | – | 0.00236 ± 0.003 | – | 0.000623 ± 0.015
10 | UCCUGGUACAGCUUGCAUGGUAUUUAGUUA | 0.298 ± 0.021 | 0.0136 ± 0.0044 | 0.891 ± 0.058 | 0.0741 ± 0.018 | 0.00828 ± 0.0033 | –

Rewritten as tab-separated lines: entries from further up.
Row	Sequence	pre-steady-state target cleavage rate [1, 4]	pre-steady-state target cleavage rate [1, 5]	pre-steady-state target cleavage rate [2, 4]	pre-steady-state target cleavage rate [2, 5]	pre-steady-state target cleavage rate [3, 6]	pre-steady-state target cleavage rate ([3]; auxiliary factor: none (no Gtsf1))
5	UCCUGCAACAGCUUGCAUAGUAUUUAGUUA	0.398 ± 0.028	0.0107 ± 0.0034	1.57 ± 0.12	0.0696 ± 0.017	0.0741 ± 0.018	–
9	UCCUGGAACAGCUUGCAUAGUAAAAAGUUA	0.0663 ± 0.018	0.00235 ± 0.0028	–	0.00236 ± 0.003	–	0.000623 ± 0.015
